Reference: patent US20120128667A1 (ONCOZYME PHARMA INC., priority 2009, published 2012)

Test system: metastatic colorectal cancer (mCRC)
Test: Phase I/II trial of pentamidine with chemotherapy in previously treated mCRC (Example 5)
Format: in vivo, human
Conditions: initial 17 pts; range in brackets

## N=C(N)c1ccc(OCCCCCOc2ccc(C(=N)N)cc2)cc1 [Pentamidine]
  Median duration of treatment: 15.1 wk (0.3-58.4)
